In US20190298721A1, “STABLE PRO-VITAMIN DERIVATIVE COMPOUNDS, PHARMACEUTICAL AND DIETARY COMPOSITIONS, AND METHODS OF THEIR USE” (CORNELL UNIVERSITY, priority 2016, published 2019):
At least one compound was matched to its structure with a doubt left.

Test system: HeLa cells
Assay: Total intracellular folate measurement in HeLa cells (L. casei microbiological assay)
Assay type: cell-based
Conditions: 2 nM or 20 nM folate form, (6S)-Leucovorin vs (6S)-5-methyl, 10-formyltetrahydrofolate (FIG. 7)
Procedure: HeLa cells were cultured in Defined αMEM (as described above) lacking folate for two doublings to deplete cellular folates, then plated into 6-well plates (1000 cells/well) and cultured for two cell doublings with Defined αMEM culture media (described above) supplemented with 200 μM methionine, 0.5 g/L pyridoxine, and either 2 nM or 20 nM (6S)-Leucovorin or novel folate derivative. Total intracellular folates were quantified using a microbiological (Lactobacillus casei, or L. casei) assay as previously described (Suh et al., “Purification and Properties of a Folate-Catabolizing Enzyme,” J. Biol. Chem. 275(45):35646-35655 (2000), which is hereby incorporated by reference in its entirety). Data is represented as mean±SEM of three biological replicates per condition.

Nc1nc2c(c(=O)[nH]1)N(C=O)[C@@H](CNc1ccc(C(=O)N[C@@H](CCC(=O)O)C(=O)O)cc1)CN2 [(6S)-Leucovorin, (6S)-5-formyltetrahydrofolate, reference compound]
Total intracellular folate levels: higher
